# Measurements: the M2OR odorant receptor database
# Chains of the proteins cited; added tags and fusions are not shown. A line that says so, or that is headed by a name, gives the form on record, which may keep a tag or linker.
# OR2J3, as listed by the source: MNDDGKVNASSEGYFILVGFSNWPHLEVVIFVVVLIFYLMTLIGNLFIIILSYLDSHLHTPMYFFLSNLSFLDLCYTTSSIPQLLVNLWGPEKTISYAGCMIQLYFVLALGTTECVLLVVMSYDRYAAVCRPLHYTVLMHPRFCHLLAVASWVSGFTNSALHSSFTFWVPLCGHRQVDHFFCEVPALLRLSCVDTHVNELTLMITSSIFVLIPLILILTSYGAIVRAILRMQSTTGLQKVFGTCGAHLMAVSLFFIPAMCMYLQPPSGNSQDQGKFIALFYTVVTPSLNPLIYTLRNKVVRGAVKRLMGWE
# OR2J1, as listed by the source: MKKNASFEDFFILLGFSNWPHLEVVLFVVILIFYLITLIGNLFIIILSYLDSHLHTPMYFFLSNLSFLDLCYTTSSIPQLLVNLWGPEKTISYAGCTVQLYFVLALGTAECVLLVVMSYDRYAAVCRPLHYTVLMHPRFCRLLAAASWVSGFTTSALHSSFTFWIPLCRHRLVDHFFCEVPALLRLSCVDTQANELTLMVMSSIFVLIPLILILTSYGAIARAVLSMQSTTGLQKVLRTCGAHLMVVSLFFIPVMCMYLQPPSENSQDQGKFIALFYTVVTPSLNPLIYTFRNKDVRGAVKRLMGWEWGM
# OR2J2, as listed by the source: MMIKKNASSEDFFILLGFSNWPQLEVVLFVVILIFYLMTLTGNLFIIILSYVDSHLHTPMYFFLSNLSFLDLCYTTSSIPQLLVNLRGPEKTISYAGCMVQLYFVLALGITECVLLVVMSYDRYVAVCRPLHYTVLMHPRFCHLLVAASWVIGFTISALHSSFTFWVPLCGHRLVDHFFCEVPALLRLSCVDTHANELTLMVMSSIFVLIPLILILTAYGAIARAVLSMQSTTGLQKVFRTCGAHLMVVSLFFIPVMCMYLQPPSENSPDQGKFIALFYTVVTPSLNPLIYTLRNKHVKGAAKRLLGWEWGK
# Positions count from the first letter of the chain named. This is a selection; strong and weak results do not stand in their true shares. The calls were merged from several studies; some rest on single wells. This is one part of the list.
# Tests used:
# Conditions in all cases: stereoisomer not certain
# [1] = system: T1, OR2H2
# T1 sequence (whole entry): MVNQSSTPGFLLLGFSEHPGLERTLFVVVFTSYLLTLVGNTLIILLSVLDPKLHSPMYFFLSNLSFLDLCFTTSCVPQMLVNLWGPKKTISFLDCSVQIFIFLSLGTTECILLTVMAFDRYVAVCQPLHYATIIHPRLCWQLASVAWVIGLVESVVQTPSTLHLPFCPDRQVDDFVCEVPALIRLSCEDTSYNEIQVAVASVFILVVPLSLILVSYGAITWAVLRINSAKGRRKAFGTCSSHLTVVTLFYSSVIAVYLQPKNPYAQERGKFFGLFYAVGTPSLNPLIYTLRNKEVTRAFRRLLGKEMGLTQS
# Procedure, shortened: (§1)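 Assay methods differ from source to source, frequently being transient luciferase assays in mammalian cell lines. For each receptor–molecule pair, the label responsive (active) applies when the original authors judged the measured signal statistically different from baseline, and non-responsive (inactive) applies otherwise.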
# [2] = system: T2, OR2J1
# T2 sequence (whole entry): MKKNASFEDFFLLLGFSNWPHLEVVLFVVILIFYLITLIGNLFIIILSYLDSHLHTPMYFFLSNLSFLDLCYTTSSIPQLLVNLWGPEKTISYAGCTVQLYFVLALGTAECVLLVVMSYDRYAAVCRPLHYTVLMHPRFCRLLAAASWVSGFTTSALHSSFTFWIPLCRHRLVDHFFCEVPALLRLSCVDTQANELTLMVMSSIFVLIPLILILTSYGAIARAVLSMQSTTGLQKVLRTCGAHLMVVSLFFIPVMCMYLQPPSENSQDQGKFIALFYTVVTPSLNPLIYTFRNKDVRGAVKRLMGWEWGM
# Procedure, shortened: as §1
# [3] = target: T3, OR2J2 (Homo sapiens) (UniProt O76002)
# T3 sequence (whole entry): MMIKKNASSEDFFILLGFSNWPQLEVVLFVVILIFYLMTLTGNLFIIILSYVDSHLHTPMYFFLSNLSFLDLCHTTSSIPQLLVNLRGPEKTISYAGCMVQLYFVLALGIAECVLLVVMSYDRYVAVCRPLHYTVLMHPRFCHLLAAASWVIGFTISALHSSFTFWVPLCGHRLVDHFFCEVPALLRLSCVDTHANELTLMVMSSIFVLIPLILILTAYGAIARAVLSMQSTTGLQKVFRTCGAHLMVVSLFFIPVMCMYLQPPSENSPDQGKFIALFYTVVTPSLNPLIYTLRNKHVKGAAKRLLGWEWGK
# Procedure, shortened: as §1
# [4] = system: T4, OR2J2
# T4 sequence (whole entry): T3 sequence (whole entry) with A218T
# Procedure, shortened: as §1
# [5] = system: T5, OR2J2; remark: listed apart in the source
# T5 sequence (whole entry): T3 sequence (whole entry) with H74Y, A146V, A218T
# Procedure, shortened: as §1
# [6] = system: T6, OR2J2; remark: listed apart in the source
# T6 sequence (whole entry): T3 sequence (whole entry) with H74Y, A111T, A146V
# Procedure, shortened: as §1
# [7] = target: T7, OR2J3 (Homo sapiens) (UniProt O76001)
# T7 sequence (whole entry): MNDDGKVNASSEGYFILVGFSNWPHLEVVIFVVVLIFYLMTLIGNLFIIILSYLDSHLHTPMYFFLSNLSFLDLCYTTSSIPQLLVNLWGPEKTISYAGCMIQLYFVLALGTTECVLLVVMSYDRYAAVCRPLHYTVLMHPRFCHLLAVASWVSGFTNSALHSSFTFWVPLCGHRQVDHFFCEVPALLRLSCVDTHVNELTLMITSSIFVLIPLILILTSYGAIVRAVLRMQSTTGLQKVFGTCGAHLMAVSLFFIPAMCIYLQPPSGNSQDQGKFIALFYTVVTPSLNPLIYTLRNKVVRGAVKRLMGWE
# Procedure, shortened: as §1
# [8] = target: T8, OR2K2 (Homo sapiens) (UniProt Q8NGT1)
# T8 sequence (whole entry): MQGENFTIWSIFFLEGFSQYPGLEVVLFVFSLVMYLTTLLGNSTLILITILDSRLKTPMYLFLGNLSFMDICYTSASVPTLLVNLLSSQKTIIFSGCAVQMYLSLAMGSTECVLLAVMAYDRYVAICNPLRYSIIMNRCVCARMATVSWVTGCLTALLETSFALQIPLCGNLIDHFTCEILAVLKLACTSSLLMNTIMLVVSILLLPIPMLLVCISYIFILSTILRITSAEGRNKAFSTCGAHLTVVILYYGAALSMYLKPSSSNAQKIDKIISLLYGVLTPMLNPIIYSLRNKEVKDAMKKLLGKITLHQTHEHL
# Procedure, shortened: as §1
# [9] = target: T9, OR2L13 (Homo sapiens) (UniProt Q8N349)
# T9 sequence (whole entry): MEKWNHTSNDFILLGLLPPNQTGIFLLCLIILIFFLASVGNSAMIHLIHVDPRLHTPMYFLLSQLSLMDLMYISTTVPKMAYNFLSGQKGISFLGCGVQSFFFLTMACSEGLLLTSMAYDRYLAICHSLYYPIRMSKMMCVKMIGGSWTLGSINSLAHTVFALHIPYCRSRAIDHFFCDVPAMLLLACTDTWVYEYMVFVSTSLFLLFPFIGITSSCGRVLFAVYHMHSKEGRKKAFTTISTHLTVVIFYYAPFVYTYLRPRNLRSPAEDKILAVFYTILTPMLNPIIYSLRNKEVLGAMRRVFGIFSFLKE
# Procedure, shortened: as §1
# [10] = target: T10, OR2L2 (Homo sapiens) (UniProt Q8NH16)
# T10 sequence (whole entry): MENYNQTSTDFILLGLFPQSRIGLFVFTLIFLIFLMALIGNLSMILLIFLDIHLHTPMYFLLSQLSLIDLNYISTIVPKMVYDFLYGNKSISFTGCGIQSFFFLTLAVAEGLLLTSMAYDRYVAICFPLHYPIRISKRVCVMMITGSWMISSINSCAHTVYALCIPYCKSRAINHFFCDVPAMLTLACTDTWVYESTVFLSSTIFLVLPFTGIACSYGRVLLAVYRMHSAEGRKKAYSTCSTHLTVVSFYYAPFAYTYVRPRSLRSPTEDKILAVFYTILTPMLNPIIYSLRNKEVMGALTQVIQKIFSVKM
# Procedure, shortened: as §1
# [11] = system: OR2J1; remark: listed apart in the source
# Procedure, shortened: as §1
# [12] = system: OR2J3
# Procedure, shortened: as §1
# [13] = system: OR2J3; remark: listed apart in the source
# Procedure, shortened: as §1
# [14] = system: OR2J3; remark: listed apart in the source
# Procedure, shortened: as §1
# [15] = system: OR2J3; remark: listed apart in the source
# Procedure, shortened: as §1
# [16] = system: T11, OR2J3; remark: listed apart in the source
# T11 sequence (whole entry): T7 sequence (whole entry) with R226Q
# Procedure, shortened: as §1
# [17] = system: OR2J3; remark: listed apart in the source
# Procedure, shortened: as §1
# [18] = system: T12, OR2J3; remark: listed apart in the source
# T12 sequence (whole entry): T7 sequence (whole entry) with I261M
# Procedure, shortened: as §1
# [19] = system: OR2J3; remark: listed apart in the source
# Procedure, shortened: as §1
# [20] = system: OR2J2; remark: listed apart in the source
# Procedure, shortened: as §1
Compound,odorant receptor agonist call [1],odorant receptor agonist call [2],odorant receptor agonist call [3],odorant receptor agonist call [4],odorant receptor agonist call [5],odorant receptor agonist call [6],odorant receptor agonist call [7],odorant receptor agonist call [8],odorant receptor agonist call [9],odorant receptor agonist call [10],odorant receptor agonist call [11],odorant receptor agonist call [12],odorant receptor agonist call [13],odorant receptor agonist call [14],odorant receptor agonist call [15],odorant receptor agonist call [16],odorant receptor agonist call [17],odorant receptor agonist call [18],odorant receptor agonist call [19],odorant receptor agonist call [20]
C=CCSCC=C,inactive,inactive,inactive,inactive,inactive,inactive,active,inactive,inactive,inactive,,,,,,,,,,
CCCCCCOC(=O)CCC,inactive,inactive,inactive,inactive,inactive,inactive,active,inactive,inactive,inactive,,,,,,,,,,
CCCCCCCC=CC=O,inactive,inactive,inactive,inactive,inactive,active,inactive,inactive,inactive,active,,,,,,,,,,
CCC=CCCO,inactive,inactive,inactive,inactive,active,active,active,inactive,inactive,inactive,active,inactive,inactive,active,active,active,active,active,inactive,
CC1=CCC(C(C)(C)O)CC1 (stereo not given),inactive,inactive,inactive,inactive,inactive,inactive,active,inactive,inactive,inactive,,,,,,,,,,
CC(=O)OC1CC2CCC1(C)C2(C)C (stereo not given),inactive,inactive,inactive,inactive,inactive,inactive,inactive,inactive,inactive,inactive,,,,,,,,,,
CC12C=CCC1C1CCC3CC(=O)CCC3(C)C1CC2 (stereo not given),inactive,inactive,inactive,inactive,active,inactive,inactive,inactive,inactive,inactive,,,,,,,,,,active
CC(C)C(=O)O,inactive,inactive,inactive,inactive,inactive,inactive,inactive,inactive,inactive,inactive,,,,,,,,,,
CC=Cc1ccc(O)c(OC)c1,inactive,inactive,active,active,active,active,active,inactive,active,inactive,,,,,,,,,,
CC(C)C=O,inactive,inactive,inactive,inactive,inactive,inactive,inactive,inactive,inactive,inactive,,,,,,,,,,
CC(=O)C(C)=O,inactive,inactive,inactive,inactive,inactive,inactive,active,inactive,inactive,inactive,,,,,,,,,,
CCCC(=O)O,inactive,inactive,inactive,inactive,inactive,inactive,inactive,inactive,inactive,active,,,,,,,,,,
